Experimental data: paper PMC10163288
The other results are listed elsewhere or left out.

B1: il2ra_site1_2b5i_normal_mot_HHH_b2_04910_000000118_0001_1_19_H_._HHH_b1_03473_0001_0000100004_0000001_0_af2pred_0001_af2pred_1 (protein)
chain: SSSSSEELMEALELADKLVKNGDPEEARRVLEEALKEAEELGNRSIIKILRSALRLIELMESSSS
B2: il2ra_site2_2erj_normal_mot_HHH_b1_02757_000000121_0001_41_57_H_._HHH_b1_03035_0001_0000500018_0000001_0_af2pred_0001_af2pred (protein)
chain: SSSSSSDEEEEKVEELLEEAEHITDRREALRVLQEADEIAAENDNEELLELIEEWYKRLSSSSSS
B3: il2ra_site2_2erj_normal_mot_HHH_b1_05204_000000269_0001_1_15_H_._HHH_b1_00954_0001_0000200014_0000001_0_1_af2pred_0001_af2pred (protein)
chain: SSSSDLEEELRRLLEELEELVKEGDEKKFMEVALRVAKLVIENNDEEAAKLLLRLLRELRSSSSS
B4: il2ra_site2_2erj_normal_mot_b51ef6c5904a99cec739238a0ecf354a_0001_af2_000000238_0001_35_49_H_._HHH_b1_05977_0001_0000400024_0000001_0 (protein)
chain: SSSSLEESFELLEELFERLNKLIEKNDEEEFERVLEELRKLAERFESPIVRDAIELLELQHSSSS
B5: il2ra_site1_3nfp_normal_mot_HHH_b2_03135_af2_000000097_0001_42_55_H_._HHH_b1_08375_0001_0000300023_0000001_0 (protein)
chain: SSSSDHELSRLAQEAWKLLREGDLEEAEEVLREAEQLARELNDKIALKLVEQLLEALERRGSSSS
B6: il2ra_site1_1z92_sap_16_mot_9b3351f2f66fbcc824ad33b4da01f8ef_0001_af2_000000012_0001_16_32_H_._HHH_b1_01088_0001_0000300029_0000001_0_0001 (protein)
chain: SSSSSREERALEWALELLKSAVRLGNQERAEFVTRDIEMIARRLNDEEVLEEAEELLRRLTSSSS
B7: il2ra_site1_1z92_sap_8_mot_HHH_b1_03465_af2_000000044_0001_40_52_H_._HHH_b2_03045_0001_0000300027_0000001_0_0001 (protein)
chain: SSSSDEELRQVVKELVEEYNLSEAAEKVLERLVKMDEELGVSEESAKEALEKAAELFHRLQSSSS
B8: il2ra_site2_3nfp_sap_25_mot_HHH_b1_06715_000000068_0001_21_38_H_._ad6158629c6fd226c14646e2effd3054_0001_1_af2_0001_0000300021_0000001_1_0001 (protein)
chain: SSSSDEREEEIRELLEEAKRIEDPEEAARAVSRAAALAAELQDFELFALAAELRYKLIRDSSSSS
B9: il2ra_site1_1z92_sap_11_mot_dddd11d5de81826a7497a0a2545a4374_0001_1_af2_000000029_0001_35_49_H_._f9a7eb7446a159d83fbdd9ee03297373_0001_0001_0000200028_0000001_0 … (protein)
chain: SNELEEEIKEAIEKNDEELLKEILELLERIAGDPRLARQFLAQLIRRLLGDPEKAKEIVERIARR
B10: il2ra_site1_2b5i_normal_mot_22370d59370c406a0c205a431f537cfa_0001_af2_000000027_0001_1_31_H_._HHH_b2_07174_0001_0000500033_0000001_0_af2pred_0001_af2pred_1 (protein)
chain: SSSSSEAERLAEIVFELAEEFGLDTEQFNELARLASRLAFRGVSEEEIEKLLEELAERLSSSSSS

These binders were tested against il2ra, P01589 (assay: yeast display titration).

Apparent Kd, inactive:
B1 no binding seen
B2 no binding seen
B3 no binding seen
B4 no binding seen
B5 no binding seen
B6 no binding seen
B7 no binding seen
B8 no binding seen
B9 no binding seen
B10 no binding seen

A section of the results above, as a working copy:
Apparent Kd, inactive:
B9 no binding seen
B10 no binding seen
